Measured values published in publication PMC8563733, “The transcriptional corepressor CtBP2 serves as a metabolite sensor orchestrating hepatic glucose and lipid homeostasis” (Nature Communications, 2021).
Results are given in words; binding and its absence hold for the method and conditions named. For some assays here: In cells and extracts the contact can be indirect. Some binding calls cover weakened binding; strength is not graded here.

The chains behind the UniProt entries cited, without tags or fusion partners. Where a name states a change or a piece, a line headed by the entry shows the natural chain unless it says otherwise. A line that says so, or that is headed by a name, gives the form on record, which may keep a tag or linker.
UniProt Q9R1E0: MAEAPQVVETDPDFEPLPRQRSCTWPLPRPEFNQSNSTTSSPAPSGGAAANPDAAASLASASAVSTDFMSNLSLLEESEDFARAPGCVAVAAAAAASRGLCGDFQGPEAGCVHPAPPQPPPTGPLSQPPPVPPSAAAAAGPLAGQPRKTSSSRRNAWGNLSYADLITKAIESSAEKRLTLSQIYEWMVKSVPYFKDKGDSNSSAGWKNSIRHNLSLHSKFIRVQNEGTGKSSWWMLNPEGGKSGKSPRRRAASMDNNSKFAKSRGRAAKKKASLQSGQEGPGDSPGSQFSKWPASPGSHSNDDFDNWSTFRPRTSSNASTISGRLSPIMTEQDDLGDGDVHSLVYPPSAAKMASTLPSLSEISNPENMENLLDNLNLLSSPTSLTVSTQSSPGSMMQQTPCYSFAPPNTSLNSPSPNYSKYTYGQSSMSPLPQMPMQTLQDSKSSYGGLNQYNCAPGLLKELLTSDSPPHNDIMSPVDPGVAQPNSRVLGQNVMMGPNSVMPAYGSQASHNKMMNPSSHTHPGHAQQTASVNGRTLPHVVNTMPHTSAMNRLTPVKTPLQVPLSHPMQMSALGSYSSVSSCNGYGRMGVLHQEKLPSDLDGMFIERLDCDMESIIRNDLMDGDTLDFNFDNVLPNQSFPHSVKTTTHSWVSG
purified recombinant △DB FoxO1 mutant (Q9R1E0, form named): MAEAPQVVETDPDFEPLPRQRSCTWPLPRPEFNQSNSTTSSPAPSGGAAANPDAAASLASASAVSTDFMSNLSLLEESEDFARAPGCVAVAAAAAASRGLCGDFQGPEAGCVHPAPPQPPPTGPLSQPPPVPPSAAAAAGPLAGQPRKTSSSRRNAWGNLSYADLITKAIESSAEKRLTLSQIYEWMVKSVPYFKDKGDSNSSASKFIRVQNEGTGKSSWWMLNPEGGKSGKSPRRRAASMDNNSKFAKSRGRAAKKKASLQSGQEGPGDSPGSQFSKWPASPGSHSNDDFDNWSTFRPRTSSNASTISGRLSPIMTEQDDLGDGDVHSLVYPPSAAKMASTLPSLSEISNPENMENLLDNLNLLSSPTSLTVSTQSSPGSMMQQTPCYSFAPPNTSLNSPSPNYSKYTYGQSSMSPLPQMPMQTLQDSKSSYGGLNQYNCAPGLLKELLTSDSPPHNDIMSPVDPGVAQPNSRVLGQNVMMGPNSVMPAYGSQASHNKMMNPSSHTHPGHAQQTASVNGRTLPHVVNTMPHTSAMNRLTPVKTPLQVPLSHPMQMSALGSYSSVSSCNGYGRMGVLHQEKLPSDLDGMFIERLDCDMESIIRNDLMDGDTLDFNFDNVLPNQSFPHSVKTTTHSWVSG
UniProt Q12778: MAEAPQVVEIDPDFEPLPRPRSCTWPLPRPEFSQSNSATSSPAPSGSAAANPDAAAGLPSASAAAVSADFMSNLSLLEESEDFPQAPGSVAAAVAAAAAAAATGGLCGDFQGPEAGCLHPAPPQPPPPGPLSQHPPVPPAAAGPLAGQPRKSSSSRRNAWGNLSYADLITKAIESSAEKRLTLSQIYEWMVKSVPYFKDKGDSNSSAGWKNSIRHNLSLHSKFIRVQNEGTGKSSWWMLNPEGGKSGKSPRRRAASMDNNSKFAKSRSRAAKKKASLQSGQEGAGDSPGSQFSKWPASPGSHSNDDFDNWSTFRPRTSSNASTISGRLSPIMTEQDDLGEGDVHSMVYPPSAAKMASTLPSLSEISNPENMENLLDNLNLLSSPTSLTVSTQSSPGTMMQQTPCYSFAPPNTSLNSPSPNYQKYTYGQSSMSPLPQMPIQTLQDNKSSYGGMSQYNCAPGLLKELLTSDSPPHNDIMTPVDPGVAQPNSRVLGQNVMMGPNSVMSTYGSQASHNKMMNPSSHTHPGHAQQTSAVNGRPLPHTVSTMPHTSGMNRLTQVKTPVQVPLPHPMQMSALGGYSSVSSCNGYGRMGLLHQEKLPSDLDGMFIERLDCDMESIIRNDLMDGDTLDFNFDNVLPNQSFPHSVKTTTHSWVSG
UniProt P35222: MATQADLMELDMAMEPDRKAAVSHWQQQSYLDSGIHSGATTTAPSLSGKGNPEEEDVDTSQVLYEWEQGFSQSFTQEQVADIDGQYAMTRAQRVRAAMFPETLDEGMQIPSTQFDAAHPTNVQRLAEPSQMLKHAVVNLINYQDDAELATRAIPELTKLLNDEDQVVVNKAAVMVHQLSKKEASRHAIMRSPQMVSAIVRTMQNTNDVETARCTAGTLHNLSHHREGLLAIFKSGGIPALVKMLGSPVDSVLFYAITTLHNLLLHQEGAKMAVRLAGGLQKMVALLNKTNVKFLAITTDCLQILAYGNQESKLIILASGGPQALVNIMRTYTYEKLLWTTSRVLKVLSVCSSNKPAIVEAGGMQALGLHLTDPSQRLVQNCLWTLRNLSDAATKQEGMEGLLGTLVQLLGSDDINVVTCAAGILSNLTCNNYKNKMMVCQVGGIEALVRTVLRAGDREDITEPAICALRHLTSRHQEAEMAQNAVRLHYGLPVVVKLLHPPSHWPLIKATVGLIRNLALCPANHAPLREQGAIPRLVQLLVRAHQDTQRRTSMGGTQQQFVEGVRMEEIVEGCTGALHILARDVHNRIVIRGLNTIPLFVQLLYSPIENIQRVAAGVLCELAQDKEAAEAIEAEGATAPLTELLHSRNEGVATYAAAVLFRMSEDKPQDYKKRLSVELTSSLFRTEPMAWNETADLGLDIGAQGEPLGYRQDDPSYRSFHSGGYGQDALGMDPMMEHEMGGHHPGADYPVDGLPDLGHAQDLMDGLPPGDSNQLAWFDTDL
UniProt P56546: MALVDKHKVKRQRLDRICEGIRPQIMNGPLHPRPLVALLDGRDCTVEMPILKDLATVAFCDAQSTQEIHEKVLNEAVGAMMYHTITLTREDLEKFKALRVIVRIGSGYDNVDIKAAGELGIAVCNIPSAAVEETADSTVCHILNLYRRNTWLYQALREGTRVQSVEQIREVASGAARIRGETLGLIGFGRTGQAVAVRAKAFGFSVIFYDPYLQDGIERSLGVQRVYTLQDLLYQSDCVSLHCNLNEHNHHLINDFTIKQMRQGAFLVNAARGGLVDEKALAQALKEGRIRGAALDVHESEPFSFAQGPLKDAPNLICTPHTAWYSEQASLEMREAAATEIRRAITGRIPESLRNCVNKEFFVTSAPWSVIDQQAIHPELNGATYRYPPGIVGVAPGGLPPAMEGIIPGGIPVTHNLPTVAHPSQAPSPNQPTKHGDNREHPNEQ

What was measured:
[1] = biological target: differentially tagged CtBP2 (FLAG-CtBP2 and CtBP2-HA), ALA201HIS mutant (UniProt P56545); assay: co-IP; differentially tagged CtBP2 (FLAG-CtBP2 and CtBP2-HA) co-expressed in cells; dimer formation
[2] = biological target: Forkhead box O1 (FoxO1), endogenous, mouse (mouse (endogenous in primary hepatocytes and liver)) (UniProt Q9R1E0); assay: co-IP; liver of diet-induced obese mice after adenoviral expression of CtBP2 (wild type or A201H); CtBP2/FoxO1 complex
FLAG wild-type FoxO1 [3] = biological target: FLAG wild-type FoxO1 (UniProt Q9R1E0); assay: co-IP; HEK293 cells transfected with FLAG-FoxO1 (wild type or mutated) and CtBP1 or CtBP2; FLAG M2 magnetic beads, buffer A with 0.5% NP40, 4 h at 4 °C, eluted with 3x FLAG peptide; in some panels NADH, oleoyl-CoA, acetyl-CoA or sodium oleate added to the lysates (8 h at 4 °C), or cells treated with lactate/pyruvate, koningic acid or palmitate-BSA with ACSL1
[4] = biological target: Forkhead box O1 (FoxO1), endogenous, mouse (mouse (endogenous in primary hepatocytes and liver)) (UniProt Q9R1E0); assay: co-IP; endogenous proteins of mouse liver homogenates; antibodies cross-linked to Protein G dynabeads, buffer A with 0.5% NP40, 4 h at 4 °C; normal mice (fasted/fed, glucagon, glucocorticoid, insulin, glucose, NR5A2 knock-down, oleoyl-CoA added to lysates), genetically obese and diet-induced obese mice
[5] = biological target: T1, zinc-finger protein FOG family member 1 (ZFPM1), endogenous, mouse liver (mouse (endogenous in liver)) (UniProt O35615); assay: as above
T1 sequence: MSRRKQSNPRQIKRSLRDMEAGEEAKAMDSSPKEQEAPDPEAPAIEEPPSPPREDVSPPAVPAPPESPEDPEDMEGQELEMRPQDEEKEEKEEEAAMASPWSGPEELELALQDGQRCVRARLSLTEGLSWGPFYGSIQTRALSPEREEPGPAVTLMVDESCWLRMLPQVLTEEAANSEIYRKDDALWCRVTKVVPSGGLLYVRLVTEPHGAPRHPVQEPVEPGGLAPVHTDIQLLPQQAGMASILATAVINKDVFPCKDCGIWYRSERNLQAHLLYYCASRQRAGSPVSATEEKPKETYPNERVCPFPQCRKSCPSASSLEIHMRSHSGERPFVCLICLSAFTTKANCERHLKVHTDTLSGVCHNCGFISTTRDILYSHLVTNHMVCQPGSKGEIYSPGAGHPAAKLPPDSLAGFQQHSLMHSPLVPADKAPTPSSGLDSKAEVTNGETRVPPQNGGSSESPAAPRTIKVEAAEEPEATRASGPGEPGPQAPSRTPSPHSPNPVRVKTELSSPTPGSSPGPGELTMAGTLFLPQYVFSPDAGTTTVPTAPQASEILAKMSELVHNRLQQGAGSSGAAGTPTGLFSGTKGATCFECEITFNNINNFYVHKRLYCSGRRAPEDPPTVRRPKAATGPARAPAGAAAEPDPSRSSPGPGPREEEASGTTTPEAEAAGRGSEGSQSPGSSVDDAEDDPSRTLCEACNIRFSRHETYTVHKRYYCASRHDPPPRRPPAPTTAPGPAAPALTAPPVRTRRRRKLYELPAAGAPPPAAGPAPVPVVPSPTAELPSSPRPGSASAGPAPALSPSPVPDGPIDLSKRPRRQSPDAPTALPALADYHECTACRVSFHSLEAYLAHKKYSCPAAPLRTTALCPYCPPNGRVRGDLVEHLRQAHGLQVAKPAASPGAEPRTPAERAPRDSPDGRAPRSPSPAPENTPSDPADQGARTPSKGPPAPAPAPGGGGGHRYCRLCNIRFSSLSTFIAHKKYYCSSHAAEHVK

FLAG wild-type FoxO1 [6] = biological target: FLAG wild-type FoxO1 (UniProt Q9R1E0); assay: pull-down; purified recombinant proteins incubated with different concentrations of metabolites (NADH 0 or 10 μM; oleoyl-CoA or acetyl-CoA 0, 15, 50 μM) for 6–8 h at room temperature, read by blot; how the complex was captured is not stated; both purified
[7] = biological target: purified recombinant △DB FoxO1 mutant (UniProt Q9R1E0); assay: as above
[8] = biological target: NR5A2(LRH-1), exogenously expressed (UniProt P45448); assay: co-IP; HEK293 cells expressing CtBP2 and NR5A2(LRH-1), wild type or mutated in the PSDL motif; which protein was precipitated not given
[9] = biological target: NR5A2(LRH-1), exogenously expressed (UniProt P45448); assay: co-IP; exogenous expression of CtBP2, NR5A2(LRH-1) and SREBP1; cells and precipitated protein not stated (Supplementary Fig. 4d)
[10] = biological target: FoxO1, endogenous, human liver (human (endogenous in liver)) (UniProt Q12778); assay: co-IP; endogenous proteins of human liver autopsy specimens, lean and obese subjects
[11] = biological target: FoxO1 with large BiT fused to its C-terminal (UniProt Q9R1E0); assay: split reporter; NanoLuciferase Binary Technology in living HEK293 cells stably expressing CtBP2-small BiT and FoxO1-large BiT; stimulated with 50 mM lactate, followed over 30 min

## differentially tagged CtBP2 (FLAG-CtBP2 and CtBP2-HA), ALA201HIS mutant (from UniProt P56545 1-445)
[1]
  binding: binds

## CtBP2 exogenously expressed in the liver of diet-induced obese mice by adenoviral transduction (AdCtBP2) (from UniProt P56545 1-445)
[2]
  binding: binds

## β-catenin (from UniProt P35222 1-781)
FLAG wild-type FoxO1 [3]
  binding: binds

## CtBP2, endogenous, mouse liver (from UniProt P56546 1-445)
[4]
  binding: binds
[5]
  binding: binds

## wild-type CtBP2-HA, purified recombinant (from UniProt P56545 1-445)
FLAG wild-type FoxO1 [6]
  binding: binds
[7]
  binding: binds

## ALA201HIS mutant CtBP2 expressed in the liver of diet-induced obese mice by adenovirus (from UniProt P56545 1-445)
[2]
  binding: binds

## ALA201HIS mutant CtBP2 (from UniProt P56545 1-445)
FLAG wild-type FoxO1 [3]
  binding: binds

## C-terminal binding protein 2 (CtBP2) (from UniProt P56545 1-445)
FLAG wild-type FoxO1 [3]
  binding: binds
[8]
  binding: binds
[9]
  binding: binds

## CtBP2, endogenous, human liver (from UniProt P56545 1-445)
[10]
  binding: binds

## CtBP2 with small BiT fused to its C-terminal (from UniProt P56545 1-445)
[11]
  binding: binds
